# Laboratory results published in US20260325464A1, “COMPOSITIONS FOR MODULATING THE EXPRESSION OF AQUAPORINS IN NEURODEGENERATIVE DISORDERS” (priority 2023, published 2026).
# Marks after values point to notes of the source that are not given here.
# Legend:
# [1] = test system: BDNF; assay: BDNF level in brain homogenate (ELISA), AlCl3 Alzheimer's model; format: in vivo, rat; conditions: 5 mg/kg, p.o. + AlCl3 (100 mg/kg, i.p.), Mean ± SEM, n = 6
# From the text: (§1) Transl Psychiatry. 2019; 9(1):207.
# Brain-derived neurotrophic factors (BDNFs) play an important role in maintaining synaptic plasticity in learning and memory. Depletion of BDNF has been linked with Aβ accumulation, tau phosphorylation, neuroinflammation and neuronal apoptosis. Considering AD as a synaptic disorder, BDNF has attracted increasing attention as a potential diagnostic biomarker and a therapeutical molecule for AD. In the current study, BDNF levels were determiner using ELISA kit (Krishgen Biosystems, India).
# [2] = test system: acetylcholinesterase (AChE); conditions: 5 mg/kg, p.o. + AlCl3 (100 mg/kg, i.p.); brain homogenate; Mean ± SEM, n = 6
# [3] = test system: Alzheimer's disease; assay: Novel object recognition (NOR) test in rats with AlCl3-induced Alzheimer's disease; format: in vivo, rat; conditions: 5 mg/kg, p.o. + AlCl3 (100 mg/kg, i.p.); NOR at 15th day; Mean ± SEM, n = 6
# Procedure: as §1
# Novel object recognition (NOR)—Novel object recognition (NOR)—This test was performed as per reported protocol (Antunes M, Biala G. The novel object recognition memory: neurobiology, test procedure, and its modifications. Cognit. Process. 2012:13, 93-110). During the retrieval phase, the animal was allowed to explore the field for 10 min. The hippocampal functions were assessed through the recognition indices, which were measured according to the time spent by the animals to explore the familiar and new objects.
# The test is a relatively fast and efficient means for testing learning and memory in an animal model. The test relies on only three sessions: one habituation session, one training session, and one test session and relies on rodents' natural proclivity for exploring novelty. This is a relatively low-stress, efficient test for memory in an animal model, and is appropriate for the detection of neuropsychological changes after the administration of test drugs (Lupetow L, Novel Object Recognition Test for the Investigation of Learning and Memory in Mice, J Vis Exp. 2017; (126): 55718).
# [4] = test system: frontal cortex and hippocampus; assay: Brain histopathology (H&E), AlCl3 Alzheimer's model; format: in vivo, rat; conditions: 5 mg/kg, p.o.
# From the text: as §1
# The brain histopathology was done for all the experimental groups. The brain tissue was fixed in 10% buffered neutral formalin solution. The tissue was embedded in paraffin, sectioned at […] stained with hematoxylin and eosin (H&E). The sections were examined under light microscope to study the architecture of the brain tissue, and then photomicrographs were taken (Fischer A H, Jacobson K A, Rose J, Zeller R. Hematoxylin and eosin staining of tissue and cell sections. CSH Protoc. 2008:1;pdb.prot4986. doi: 10.1101/pdb.prot4986).
smiles,measurement,setting,value
"COc1cc2c(cc1OC)C(=O)C(CC1CCN(Cc3ccccc3)CC1)C2 (centres unmarked) [Donepezil, reference compound]",BDNF,[1],31.51 ± 2.07 pg/mL
same,Ach E,[2],4.25 ± 0.48** 10^−6 /mol/g of tissue
same,% Recognition Index,[3],62.58 ± 2.74 %
same,histopathology of frontal cortex,[4]; FIG. 8A,"intact pyramidal cells having round to oval vesicular nucleus with abundant cytoplasm, neuroglial cells, granular cells and intact blood vessels with degenerated cells [focal] with dystrophic changes having shrunken and hyperchromatic nuclei"
same,"histopathology of hippocampus (CA1, CA2, CA3)",[4]; FIG. 8B-D,intact architecture consisting of Cornu Ammonis [CA] and dentate gyrus with compact layers of small pyramidal cells having vesicular nuclei and moderate cytoplasm without shrinkage and necrosis with some degenerated cells with mild dystrophic changes having shrunken and hyperchromatic nuclei
